Data from publication PMC10989752, “LipR functions as an intracellular pH regulator in Bacillus thuringiensis under glucose conditions”.
For at least one entry, the source does not settle the construct or the ends of the probe. The comparison behind a weaker result is the experiment's own reference, which may not be listed here. Protein sequences can lack the tags named with them.

Target: T1, LipR (Bacillus thuringiensis BMB171) (UniProt A0A0G3DYA8)
T1 sequence (looked up, limits assumed): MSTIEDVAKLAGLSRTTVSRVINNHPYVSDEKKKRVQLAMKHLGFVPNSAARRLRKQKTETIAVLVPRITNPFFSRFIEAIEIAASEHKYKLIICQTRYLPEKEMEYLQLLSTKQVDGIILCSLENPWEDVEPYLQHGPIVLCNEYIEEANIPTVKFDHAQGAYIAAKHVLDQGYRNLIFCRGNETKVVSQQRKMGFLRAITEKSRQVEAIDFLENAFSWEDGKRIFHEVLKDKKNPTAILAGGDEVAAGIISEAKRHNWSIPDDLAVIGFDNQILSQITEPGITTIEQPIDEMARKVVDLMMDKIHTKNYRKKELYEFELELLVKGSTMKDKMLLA
Test: EMSA
Conditions: Ni2+ (increasing, 2.5 mM in Fig 5A); LipR: 25 mM Tris pH 8.5-9, 150 mM NaCl, 10% glycerol; CcpA/AbrB: 50 mM Tris-HCl pH 7.5, 10 mM MgCl2, 1 mM DTT, 100 mM NaCl; 28 C, 25 min, 10 ul; recombinant protein; protein details: C-terminal His (pET-28a); label: 5' FAM or Cy5 when labeled; probe letters rebuilt from the primers and the genome

GGGCCATGGTACAAACGTATGGGCTTTGTAGAAGAAGGCAGACAACGAAAGCAAATTAAATATGAAGATGGATCATATGGAGATGACGTATTGATGGGGTTTTATATTGAATAAAGGATATATGGTATTAAGAAAAGGAATGTACATAACGTAAACTTCTAAAAGCAGTATAAATTCCCCTGCATTAACAGACTTTTCCCTATGTATAATATTAATATAGTAAAATCATAACAACCGATATTGCAGTTTCCAATAATATACTATATAATCAATTTAAGAAAACGTTTTCATGGATCCCC (double strand) [PlipR promoter]
binding result: binds more weakly
